This is an account of results in PMC6648895.

Sequences of proteins named here, by UniProt entry; tags and fusion partners are left off.
UniProt P39939: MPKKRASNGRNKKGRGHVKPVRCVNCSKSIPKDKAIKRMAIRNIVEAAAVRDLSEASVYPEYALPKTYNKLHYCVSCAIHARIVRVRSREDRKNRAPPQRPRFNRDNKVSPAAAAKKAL
UniProt P25293: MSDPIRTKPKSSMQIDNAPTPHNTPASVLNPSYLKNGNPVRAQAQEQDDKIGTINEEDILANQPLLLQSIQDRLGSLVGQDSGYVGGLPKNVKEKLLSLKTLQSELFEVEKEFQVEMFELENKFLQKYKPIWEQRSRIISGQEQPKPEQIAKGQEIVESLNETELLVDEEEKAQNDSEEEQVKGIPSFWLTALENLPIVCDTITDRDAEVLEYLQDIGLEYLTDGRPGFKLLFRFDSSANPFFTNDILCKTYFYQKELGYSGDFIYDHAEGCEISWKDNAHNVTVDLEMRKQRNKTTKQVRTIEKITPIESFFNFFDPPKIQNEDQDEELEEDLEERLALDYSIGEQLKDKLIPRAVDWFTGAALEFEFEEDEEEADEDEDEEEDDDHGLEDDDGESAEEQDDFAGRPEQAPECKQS
UniProt P53067: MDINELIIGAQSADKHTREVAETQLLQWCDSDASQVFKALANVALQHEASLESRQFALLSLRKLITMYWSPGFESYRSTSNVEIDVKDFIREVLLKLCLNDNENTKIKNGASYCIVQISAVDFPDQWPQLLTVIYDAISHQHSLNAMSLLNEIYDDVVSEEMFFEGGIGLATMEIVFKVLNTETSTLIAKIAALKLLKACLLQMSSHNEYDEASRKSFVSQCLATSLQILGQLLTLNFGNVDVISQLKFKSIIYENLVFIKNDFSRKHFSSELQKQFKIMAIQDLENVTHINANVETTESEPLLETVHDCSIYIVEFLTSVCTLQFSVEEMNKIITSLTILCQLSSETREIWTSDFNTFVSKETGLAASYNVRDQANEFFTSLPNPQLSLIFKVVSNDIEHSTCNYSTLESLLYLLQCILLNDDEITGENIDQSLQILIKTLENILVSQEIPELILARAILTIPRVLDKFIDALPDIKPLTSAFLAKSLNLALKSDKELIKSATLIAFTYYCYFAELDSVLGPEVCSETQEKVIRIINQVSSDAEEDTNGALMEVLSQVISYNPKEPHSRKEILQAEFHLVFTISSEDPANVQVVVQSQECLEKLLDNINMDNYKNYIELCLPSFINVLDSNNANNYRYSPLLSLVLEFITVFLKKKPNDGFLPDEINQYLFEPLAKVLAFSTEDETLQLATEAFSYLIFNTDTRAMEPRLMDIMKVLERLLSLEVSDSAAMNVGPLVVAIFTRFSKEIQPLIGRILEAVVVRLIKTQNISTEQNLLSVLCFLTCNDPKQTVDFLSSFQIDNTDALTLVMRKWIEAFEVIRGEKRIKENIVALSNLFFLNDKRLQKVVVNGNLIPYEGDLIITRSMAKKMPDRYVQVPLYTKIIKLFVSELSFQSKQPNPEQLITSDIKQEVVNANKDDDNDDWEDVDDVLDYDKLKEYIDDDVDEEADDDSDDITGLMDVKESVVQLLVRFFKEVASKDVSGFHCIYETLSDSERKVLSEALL
UniProt Q02821: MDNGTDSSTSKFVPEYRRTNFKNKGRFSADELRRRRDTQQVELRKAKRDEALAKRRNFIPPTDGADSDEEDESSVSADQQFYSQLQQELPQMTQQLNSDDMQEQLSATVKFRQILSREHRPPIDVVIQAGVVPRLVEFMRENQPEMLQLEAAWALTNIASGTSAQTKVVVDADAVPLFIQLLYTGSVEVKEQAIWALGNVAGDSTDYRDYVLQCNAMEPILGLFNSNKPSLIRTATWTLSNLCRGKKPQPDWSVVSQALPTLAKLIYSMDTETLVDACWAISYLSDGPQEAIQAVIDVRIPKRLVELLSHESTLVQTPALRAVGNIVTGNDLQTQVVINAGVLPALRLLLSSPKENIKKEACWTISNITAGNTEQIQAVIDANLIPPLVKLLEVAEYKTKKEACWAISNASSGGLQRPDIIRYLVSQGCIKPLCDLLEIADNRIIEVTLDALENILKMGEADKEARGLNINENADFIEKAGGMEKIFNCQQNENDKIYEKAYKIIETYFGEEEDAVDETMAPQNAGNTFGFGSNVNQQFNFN

Assay [1] has as its target T1, Rps6a-TAP (S. cerevisiae) (UniProt P0CX37).
T1 sequence: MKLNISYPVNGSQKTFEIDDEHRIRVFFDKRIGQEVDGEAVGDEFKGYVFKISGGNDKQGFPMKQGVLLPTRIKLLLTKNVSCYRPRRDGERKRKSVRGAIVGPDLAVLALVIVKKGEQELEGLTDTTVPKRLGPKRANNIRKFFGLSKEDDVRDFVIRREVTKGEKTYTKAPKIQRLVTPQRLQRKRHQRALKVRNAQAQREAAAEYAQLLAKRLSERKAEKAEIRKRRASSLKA
The assay is described as follows: affinity purification with mass spectrometry; C-terminally TAP-tagged 40S r-protein as bait; tandem-affinity purification (IgG Sepharose, TEV elution, Calmodulin Sepharose) from yeast lysate in 50 mM Tris-HCl pH 7.5, 100 mM NaCl, 1.5 mM MgCl2, 0.1% NP-40, 1 mM DTT; label-free semi-quantitative LC-MS/MS, intensities plotted against the mean of all purifications.

A further assay addresses T2, Rps3-TAP (S. cerevisiae) (UniProt P05750).
T2 sequence: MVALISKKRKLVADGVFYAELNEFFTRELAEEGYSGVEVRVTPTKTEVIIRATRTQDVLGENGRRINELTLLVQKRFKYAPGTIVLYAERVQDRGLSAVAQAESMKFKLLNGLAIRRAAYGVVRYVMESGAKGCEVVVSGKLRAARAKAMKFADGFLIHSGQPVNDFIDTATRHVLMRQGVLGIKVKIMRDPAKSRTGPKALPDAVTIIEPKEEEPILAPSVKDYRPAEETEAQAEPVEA
The assay is described as above.

In assay [2] the target is Rps26b-TAP (S. cerevisiae) (UniProt P39939). The description is as above.
Assay [3] has as its target Rps14b-TAP (S. cerevisiae) (UniProt P39516). The assay is described as above.
For a further assay, the target named is Nap1-TAP (S. cerevisiae) (UniProt P25293). The assay is described as follows: affinity purification with mass spectrometry; Nap1-TAP purified from a Nap1-TAP Rps6a-Flag yeast strain (standard TAP, and Rps6a-Flag depleted pool); LC-MS/MS of eluates and mass spectrometry of Coomassie-stained gel bands.
For another assay, the target named is T3, Rps2-TAP (S. cerevisiae) (UniProt P25443).
T3 sequence: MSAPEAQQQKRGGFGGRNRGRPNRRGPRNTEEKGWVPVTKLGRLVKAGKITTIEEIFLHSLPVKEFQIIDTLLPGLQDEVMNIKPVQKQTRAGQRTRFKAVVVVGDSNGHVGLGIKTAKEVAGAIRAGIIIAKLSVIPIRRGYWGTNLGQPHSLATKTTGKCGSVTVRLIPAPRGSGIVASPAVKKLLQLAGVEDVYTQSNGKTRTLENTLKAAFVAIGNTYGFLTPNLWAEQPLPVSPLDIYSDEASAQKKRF
The assay is described as follows: affinity purification with mass spectrometry; C-terminally TAP-tagged 40S r-protein as bait; tandem-affinity purification (IgG Sepharose, TEV elution, Calmodulin Sepharose) from yeast lysate in 50 mM Tris-HCl pH 7.5, 100 mM NaCl, 1.5 mM MgCl2, 0.1% NP-40, 1 mM DTT; label-free semi-quantitative LC-MS/MS, intensities plotted against the mean of all purifications.

Results are given in words; binding and its absence hold for the method and conditions named. In cells and extracts the contact can be indirect. These calls come from enrichment with a bait or labelling near it, and not all partners need be listed. For part of these data: A no says only that the protein was not detected with the bait.

As for Kap114 (from UniProt P53067 1-1004), the binding entry in assay [1] was “no binding”.
In the case of Kap60 (from UniProt Q02821 1-542), in the assay with Rps3-TAP (S. cerevisiae), the binding entry is “binds”.
In the case of “Nap1 (endogenous) (from UniProt P25293 1-417)”, the binding result in assay [1] is listed as “binds”.

B1: Tsr2 (protein, UniProt Q06672 1-205)
chain: MSTQYIDETAFVQAEQGKTNLMFSDEKQQARFELGVSMVIYKWDALDVAVENSWGGPDSAEKRDWITGIVVDLFKNEKVVDAALIEETLLYAMIDEFETNVEDDSALPIAVEVINIYNDCFNLNYNKVEKLYLEWQEKQRTKKSKRVVHIEGDDDEDDEDVEDYDDEDEDEEMDEVVPDLVSSKPEPIVDEDGFELVQPKGRRKH
For the molecule B1, the binding result in assay [2] was “no binding”.

B2: Fap7 (protein, UniProt Q12055 1-197)
chain: MEARRYGPNIIVTGTPGCGKSSTCEFLKNKLKDYKYYNISDFAKDNDCFEGYDEGRKSHIVDEDKLLDMLEPLLRQGNSIVDWHVNDVFPERLIDLVVVLRCDNSNLYSRLHARGYHDSKIEENLDAEIMGVVKQDAVESYEPHIVVELQSDTKEDMVSNVSRIVAWEKMWLEQHPDGVTNEYQGPRSDDEDDEDSE
Regarding B2, the binding entry was “binds” in assay [3] and “no binding” in assay [2].

B3: Kap123 (protein, UniProt P40069 1-1113)
chain: MDQQFLSQLEQTLHAITSGVGLKEATKTLQTQFYTQPTTLPALIHILQNGSDDSLKQLAGVEARKLVSKHWNAIDESTRASIKTSLLQTAFSEPKENVRHSNARVIASIGTEELDGNKWPDLVPNLIQTASGEDVQTRQTAIFILFSLLEDFTSSLSGHIDDFLALFSQTINDPSSLEIRSLSAQALNHVSALIEEQETINPVQAQKFAASIPSVVNVLDAVIKADDTMNAKLIFNCLNDFLLLDSQLTGNFIVDLIKLSLQIAVNSEIDEDVRVFALQFIISSLSYRKSKVSQSKLGPEITVAALKVACEEIDVDDELNNEDETGENEENTPSSSAIRLLAFASSELPPSQVASVIVEHIPAMLQSANVFERRAILLAISVAVTGSPDYILSQFDKIIPATINGLKDTEPIVKLAALKCIHQLTTDLQDEVAKFHEEYLPLIIDIIDSAKNIVIYNYATVALDGLLEFIAYDAIAKYLDPLMNKLFYMLESNESSKLRCAVVSAIGSAAFAAGSAFIPYFKTSVHYLEKFIQNCSQIEGMSEDDIELRANTFENISTMARAVRSDAFAEFAEPLVNSAYEAIKTDSARLRESGYAFIANLAKVYGENFAPFLKTILPEIFKTLELDEYQFNFDGDAEDLAAFADSANEEELQNKFTVNTGISYEKEVASAALSELALGTKEHFLPYVEQSLKVLNEQVDESYGLRETALNTIWNVVKSVLLASKVEPESYPKGIPASSYVNADVLAVIQAARETSMGNLSDEFETSMVITVMEDFANMIKQFGAIIIMDNGDSSMLEALCMQVLSVLKGTHTCQTIDIEEDVPRDEELDASETEATLQDVALEVLVSLSQALAGDFAKVFDNFRPVVFGLFQSKSKNKRSSAVGAASELALGMKEQNPFVHEMLEALVIRLTSDKSLEVRGNAAYGVGLLCEYASMDISAVYEPVLKALYELLSAADQKALAAEDDEATREIIDRAYANASGCVARMALKNSALVPLEQTVPALLAHLPLNTGFEEYNPIFELIMKLYQENSPVITNETPRIIEIFSAVFTKENDRIKLEKESTLGREENMERLKQFQTEEMKHKVIELLKYLNTTYNGIVAQNPVLAAVIA
Take B3: the binding result (with Nap1-TAP (S. cerevisiae); in assay [1]) was “binds weakly” each time.

B4: Yar1 (protein, UniProt P46683 1-200)
chain: MGLHSEPLDQEDQDTIILDARAGDLDSLKDIFTTLVSPELLSTCKESESDSTALHMAAANGHIETVRYILETVSRANSAEDLKAFVNEVNKTGNTALHWASLNGKLDVVKLLCDEYEADPFIRNKFGHDAIFEAENSGKEEVETYFLKKYDVEPEDDEEDTQTEGKNSVQITKGTEIEQVTKEATEALREETEKLNINKD
Consider B4, for which the binding result with Rps3-TAP (S. cerevisiae) is “binds”.

B5: Tsr4 (endogenous) (protein, UniProt P25040 1-408)
chain: MSKIEELPPSDTDDHSYSSKPGDVFLAFVDAPVKETDDILVEDSFIGGEPKWLHPDSEPPAELLKCGACKSADNMKLLLQAFSPLDDEQMSAIQQRLGINNMSYINPQDDRVLYVFLCTECQRKGNSVRCIRGVKKNKNVDSLSEKMASTSLEKDFQINPFDLSNNSDSKCNAFSSNPFGGANANPFGADSINSNISQSKDEGKKKESATVSAKTARKLHDLQKDKEYDGNKCFKSCLLYVEEETFKNKKPAHLQLPKNLKIDKEALDLTGDEDLEKDPIKLDPRTEKLSKFLDDDTFQKFQEVVGYNPLQVLRYDLGGKPLLYAETKVDILSTVPRPGYNPSSQRIFEMQLMPKMIFDLEEVVSVDNGMEWGTILVFTDVENYMPEFDEHGVGYVEECVKVQWESRT
In the case of B5, the binding result in the assay with Rps2-TAP (S. cerevisiae) is reported as “binds”.

B6: Nba1 (protein, UniProt Q08229 1-501)
chain: MSEEREENGISRATLNTQRLSAMIDSLNNEKDDRLFPSPTTTRTMITEEKADQSDVFKPPSRLLRSPAGDVSLPPGDNRSSMISNYSGIIQEGVEVSYVVKNRQQTQERRTSKDSNSLYSLKEPVSKNELPSLPMLPSEATLTKHLSDNQSTKSNTNADEIVIKPVTNAKPVGRFNSNTSKKVEGRGSLKLLSSPLRQEKVMRSSIGSGNLASESGSSTYNTKFHQSIQEQLEEEEEGNVSDKLSIVSSVIPELYTTTNEAPKAINPIRSETNDYNPTIPPRSKDRPRSRLFIEEGDGEGDLLTEEILPTPVQPGGHYKNSSQISTVSEQKSESYYSAATSMPPEEETYLTRPLPSTPNEDSRVTSNLKRDDTLKAIHDRANHTSTSTNKQDDDMYEDIIEETPKKTKLKKDTKKKLNKKKSVKELRSFDIDTLNQLLSVTKGTLIGSEFAQLGMKIEEKRALERLVDSLSRLTADMVLDPDRYEEGLKRLDKATKALEGF
B6: in the assay with Nap1-TAP (S. cerevisiae), the binding entry is listed as “binds”.

B7: Kri1 (protein, UniProt P42846 1-591)
chain: MPRKKSAAKRAREQAKKEAAVPATDTATIKTSETSATTVKPAIEASKSYVPSEDEEEDEEEEEEEDDYGELITDEVENGINQVLDAIKNNKTDKLLDPKVKFFEDPESAAAKLANREGKHKPIYLKDYHRMNILSGDALKEDDEEYEHATVDGKQSFVSQQREEKTQLLNEIKSAFSDEENEESSGDEDDGFLKKKEPSTKKEGKNLPDPTVNEENFLEEFVNQQAWIPKKGDKVISLDLNNNEEDDEEFEDAAEKFENAYNFRYEDPNAAEIISYARSQATLRRSDDSSRRRKREEKRKIKEQIKAEKETALQKKKTKKLNKLTDILEQLTKEYGAEINADMVKKITDTLLKNDFKEEEWDNVVAELFNEEFYQQEGKPTWNEDDEIMGDFYADADGDDQTEEGEVEKEQKEEDEEEGPKRKKSKKEEKLQKKKEKRKVNELVENALEQNKLALIEEVEKEEEERKSRSRTKEEQDLKFRYREVSPESFGLTAREIFAADDTDLNEFIGLKKFAPYRSKELRAKDKRKVMKARRLREWRKKTFKNENGLAPVEAEAGEKDEDTILIPVEKASKSKHKRGHSHKHKGHQKK
Regarding B7, the binding entry in assay [3] is on record as “binds”.
